At least one compound was matched to its structure with a doubt left.
Tested on: p53 signalling (p21 mRNA) in human CD34+ HSPC
Experiment: p21 mRNA induction (p53 signalling) after vector transduction, Taqman
Format: cell-based
Conditions: CB-CD34+, LV MOI 100, inhibitor 10 μM, 48 h
Excerpt: Human CD34+ hematopoietic stem and progenitor cells (HSPC) and CD4+ T cells were isolated through magnetic bead selection according to the manufacturer's instructions (Milteny) from umbilical cord blood (CB) collected upon informed consent from healthy volunteers according to the Institutional Ethical Committee approved protocol (TIGET01). Otherwise, CB and bone marrow (BM)-derived CD34+ were directly purchased from Lonza. Cells were purified and cultured as described in Petrillo et al. (Petrillo, C. et al. (2015) Molecular Therapy 23: 352-362). K562 and Hela cell lines were plated in complete Iscove's modified Dulbecco's medium (Euroclone). HL-60 cells were grown and transduced in complete RPMI. HCT-116 cells were grown and transduced in complete Dulbecco's Modified Eagle Medium (DMEM). Murine Lin− cells were isolated through magnetic bead selection according to the manufacturer's instructions (Miltenyi) from bone marrow of euthanised C57/BL6 mice. […] All cells were transduced at the indicated multiplicity of infection (MOI) as calculated by titration of vector stocks on 293T cells for Lentiviral and Retroviral vectors. Transductions with the AAV6 vectors were performed at an MOI of 10000 as calculated by titration of the vector preparation expressed in vector genome per mL (vg/mL). […]

`Nc1ccn([C@@H]2CS[C@H](CO)O2)c(=O)n1` [3TC, Lamivudine] was tested. Which “LV-induced p21 mRNA in presence of the inhibitor” value did it give?
The value was “abrogated”.

— patent US12059478B2, “Gene therapy” (Ospedale San Raffaele S.r.l., priority 2016, dated 2024)
